Results deposited as PubChem BioAssay AID493246 (Drosophila RNAi Screening Center, 2011)
In all, the deposit lists about 21,000 reagents; below is a random part of those that have a named target and a result. Of all reagents, 429 (2%) got an active call. 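Values are raw and not normalised between plates; calls rest on per-plate z-scores that were not deposited.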 The record does not give: the amount of reagent, the time to read-out.

Assay: 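Genes fly cells need to grow and stay alive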 (primary screen)
Cells: Drosophila Kc and S2R+ cells
Reagent: long dsRNA against Drosophila genes
Measured: 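Cell number per well after knock-down, printed as raw plate values; calls were based on per-plate z-scores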
Reading the numbers: Kc cell number and S2R+ cell number: higher = more cells remaining
Call rule: 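Counted as a hit if cell number falls by a z-score of at least 3 within its plate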

| Target gene | dsRNA | Kc cell number, rep 1 | Kc cell number, rep 2 | S2R+ cell number, rep 1 | S2R+ cell number, rep 2 | call |
| --- | --- | --- | --- | --- | --- | --- |
| Tango4 | DRSC19786 | 5.28e5 | – | 7.64e5 | – | inactive |
| CG7791 | DRSC04891 | 1.35e6 | 1.41e6 | 1.10e6 | 1.15e6 | inactive |
| CG5895 | DRSC10554 | 1.44e6 | 1.79e6 | 1.40e6 | 1.58e6 | inactive |
| CecA1 | DRSC16603 | 1.46e6 | 1.50e6 | 1.02e6 | 1.16e6 | inactive |
| Ugt303B2 | DRSC14198 | 1.48e6 | 1.60e6 | 1.06e6 | 1.38e6 | inactive |
| MED30 | DRSC08516 | 1.21e6 | 1.38e6 | 8.90e5 | 9.98e5 | inactive |
| Dnah3 | DRSC08130 | 1.49e6 | 1.42e6 | 9.57e5 | 1.14e6 | inactive |
| Dnah3 | DRSC08513 | 1.62e6 | 1.58e6 | 1.28e6 | 1.19e6 | inactive |

An excerpt from above, reduced to “Kc cell number, rep 2”:
Dnah3 [DRSC08130]: 1.42e6
Dnah3 [DRSC08513]: 1.58e6

More results:
| Target gene | dsRNA | Kc cell number, rep 1 | Kc cell number, rep 2 | S2R+ cell number, rep 1 | S2R+ cell number, rep 2 | call |
| --- | --- | --- | --- | --- | --- | --- |
| snama | DRSC04049 | 1.26e6 | 1.36e6 | 1.10e6 | 1.13e6 | inactive |
| CG14089 | DRSC10093 | 1.35e6 | 1.48e6 | 1.24e6 | 1.27e6 | inactive |
| CG13594 | DRSC04229 | 1.58e6 | 1.69e6 | 1.39e6 | 1.49e6 | inactive |
| VAChT | DRSC13311 | 1.48e6 | 1.55e6 | 1.09e6 | 1.24e6 | inactive |
| VAChT | DRSC16608 | 1.57e6 | 1.59e6 | 1.17e6 | 1.22e6 | inactive |
| Rim2 | DRSC00073 | 1.58e6 | 1.57e6 | 1.10e6 | 1.23e6 | inactive |
| Rim2 | DRSC00520 | 1.37e6 | 1.54e6 | 1.40e6 | 1.28e6 | inactive |
| CoRest | DRSC19881 | 1.57e6 | 1.63e6 | 1.01e6 | 1.18e6 | inactive |
| gammaSnap1 | DRSC04686 | 1.36e6 | 1.39e6 | 1.09e6 | 1.16e6 | inactive |
| CG32772 | DRSC18052 | 8.52e5 | 7.01e5 | 5.48e5 | 6.31e5 | active |
| CG32772 | DRSC18406 | 5.67e5 | – | 7.39e5 | – | inactive |
| CG6843 | DRSC10725 | 1.57e6 | 1.74e6 | 1.20e6 | 1.38e6 | inactive |
| CG32982 | DRSC01059 | 1.18e6 | 1.25e6 | 7.84e5 | 9.21e5 | inactive |
| CG32982 | DRSC02677 | 1.72e6 | 1.84e6 | 1.39e6 | 1.46e6 | inactive |
| CG32982 | DRSC03268 | 1.48e6 | 1.50e6 | 1.09e6 | 1.24e6 | inactive |
| CG32982 | DRSC03269 | 1.65e6 | 1.76e6 | 1.17e6 | 1.27e6 | inactive |
